According to PMC8548210:
The exact form of at least one protein or probe is not confirmed.

Sequences of proteins named here, by UniProt entry; tags and fusion partners are left off. A change or cut given only in a name is not applied to a line headed by its entry.
UniProt Q9P2D1: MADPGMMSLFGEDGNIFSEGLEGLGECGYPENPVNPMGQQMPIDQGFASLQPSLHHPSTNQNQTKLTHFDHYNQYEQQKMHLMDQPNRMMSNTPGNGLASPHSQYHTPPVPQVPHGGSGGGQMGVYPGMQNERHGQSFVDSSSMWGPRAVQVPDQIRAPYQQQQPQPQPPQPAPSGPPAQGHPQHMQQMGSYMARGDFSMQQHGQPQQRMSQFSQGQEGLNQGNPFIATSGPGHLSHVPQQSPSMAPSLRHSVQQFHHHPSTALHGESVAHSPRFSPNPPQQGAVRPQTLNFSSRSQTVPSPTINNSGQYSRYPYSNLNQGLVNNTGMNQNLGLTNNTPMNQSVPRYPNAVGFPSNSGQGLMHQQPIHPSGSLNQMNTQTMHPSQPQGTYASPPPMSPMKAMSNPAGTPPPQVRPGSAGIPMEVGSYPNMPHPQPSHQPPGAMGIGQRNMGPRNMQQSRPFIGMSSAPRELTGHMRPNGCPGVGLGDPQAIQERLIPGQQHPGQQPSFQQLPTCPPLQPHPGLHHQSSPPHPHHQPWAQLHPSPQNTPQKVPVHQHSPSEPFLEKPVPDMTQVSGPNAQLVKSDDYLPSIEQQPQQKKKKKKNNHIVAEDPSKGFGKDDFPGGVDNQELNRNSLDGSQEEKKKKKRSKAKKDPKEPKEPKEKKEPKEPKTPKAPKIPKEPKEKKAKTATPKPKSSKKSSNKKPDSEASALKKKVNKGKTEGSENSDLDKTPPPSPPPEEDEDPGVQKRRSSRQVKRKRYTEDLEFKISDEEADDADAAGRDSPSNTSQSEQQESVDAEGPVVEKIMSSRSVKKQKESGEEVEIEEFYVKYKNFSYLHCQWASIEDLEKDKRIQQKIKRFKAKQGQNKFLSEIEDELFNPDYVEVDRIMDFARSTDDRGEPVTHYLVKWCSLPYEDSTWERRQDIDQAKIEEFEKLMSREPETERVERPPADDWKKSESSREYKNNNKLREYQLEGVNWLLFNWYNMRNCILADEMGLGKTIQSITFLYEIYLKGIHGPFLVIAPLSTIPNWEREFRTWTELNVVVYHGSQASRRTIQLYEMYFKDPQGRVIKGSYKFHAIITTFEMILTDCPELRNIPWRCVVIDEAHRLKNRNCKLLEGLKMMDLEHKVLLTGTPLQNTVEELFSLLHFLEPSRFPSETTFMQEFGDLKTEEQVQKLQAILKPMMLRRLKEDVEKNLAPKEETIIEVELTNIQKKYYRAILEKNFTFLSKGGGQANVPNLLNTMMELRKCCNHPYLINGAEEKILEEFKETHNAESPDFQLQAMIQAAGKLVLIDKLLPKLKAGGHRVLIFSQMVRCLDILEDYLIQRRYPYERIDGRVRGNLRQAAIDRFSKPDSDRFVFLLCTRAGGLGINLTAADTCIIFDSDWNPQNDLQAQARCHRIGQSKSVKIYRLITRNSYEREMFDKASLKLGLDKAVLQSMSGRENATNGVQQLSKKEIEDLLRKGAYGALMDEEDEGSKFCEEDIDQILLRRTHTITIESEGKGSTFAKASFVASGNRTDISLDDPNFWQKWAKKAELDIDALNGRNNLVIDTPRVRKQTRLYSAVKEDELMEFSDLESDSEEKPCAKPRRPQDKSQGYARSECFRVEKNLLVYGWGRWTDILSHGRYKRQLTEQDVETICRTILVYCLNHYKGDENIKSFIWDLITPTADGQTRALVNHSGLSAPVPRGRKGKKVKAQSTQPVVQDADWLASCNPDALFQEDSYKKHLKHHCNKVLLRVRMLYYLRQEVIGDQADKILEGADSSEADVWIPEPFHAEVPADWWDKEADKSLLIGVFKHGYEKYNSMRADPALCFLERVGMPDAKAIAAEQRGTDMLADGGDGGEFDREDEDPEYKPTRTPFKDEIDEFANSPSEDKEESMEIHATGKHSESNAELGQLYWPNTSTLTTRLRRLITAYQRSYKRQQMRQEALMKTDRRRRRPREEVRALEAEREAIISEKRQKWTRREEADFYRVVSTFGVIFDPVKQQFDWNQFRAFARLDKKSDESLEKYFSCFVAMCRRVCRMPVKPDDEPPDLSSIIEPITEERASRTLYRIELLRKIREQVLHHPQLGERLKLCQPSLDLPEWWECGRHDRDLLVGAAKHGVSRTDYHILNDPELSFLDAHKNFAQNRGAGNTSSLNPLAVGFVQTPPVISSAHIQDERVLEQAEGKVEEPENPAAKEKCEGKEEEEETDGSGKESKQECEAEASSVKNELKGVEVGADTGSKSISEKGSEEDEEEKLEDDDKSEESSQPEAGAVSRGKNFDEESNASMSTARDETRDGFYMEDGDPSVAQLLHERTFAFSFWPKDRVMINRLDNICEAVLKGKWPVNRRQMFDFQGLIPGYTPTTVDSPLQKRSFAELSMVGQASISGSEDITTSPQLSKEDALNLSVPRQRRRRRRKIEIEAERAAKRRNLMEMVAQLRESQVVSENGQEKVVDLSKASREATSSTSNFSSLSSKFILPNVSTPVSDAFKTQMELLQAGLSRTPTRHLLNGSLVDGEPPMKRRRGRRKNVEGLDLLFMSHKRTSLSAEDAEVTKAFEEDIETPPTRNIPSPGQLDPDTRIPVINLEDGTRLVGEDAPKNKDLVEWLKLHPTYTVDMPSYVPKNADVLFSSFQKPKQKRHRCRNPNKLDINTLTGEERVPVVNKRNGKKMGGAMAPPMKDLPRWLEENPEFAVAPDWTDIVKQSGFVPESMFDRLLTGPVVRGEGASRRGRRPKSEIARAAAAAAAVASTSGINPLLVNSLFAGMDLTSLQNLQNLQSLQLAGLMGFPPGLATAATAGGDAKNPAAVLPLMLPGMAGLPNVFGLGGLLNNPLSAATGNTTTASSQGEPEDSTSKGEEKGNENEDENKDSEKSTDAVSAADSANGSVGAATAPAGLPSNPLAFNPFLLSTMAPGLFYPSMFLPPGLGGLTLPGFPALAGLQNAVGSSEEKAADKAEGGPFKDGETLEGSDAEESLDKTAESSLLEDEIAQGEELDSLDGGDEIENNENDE

Target: CHD7 full-length (UniProt Q9P2D1)
Assay: EMSA
Conditions: Kd between 7.7 and 13.1 nM, value only in figure; 20 mM Hepes pH 7.9, 10% glycerol, 150 mM KCl, 2.5 mM MgCl2, 1 mM DTT, 0.1 mg/ml BSA, RNasin Plus; 1 nM RNA; 30 min at RT; 0.7% agarose in 0.5x TBE; recombinant protein; residues 1-2997; protein details: FLAG and His dual tag (Ni-NTA then M2); label: Cy5-UTP (body); probe letters rebuilt from the primers and the genome; part of a longer …

CUUCAACUCACACCUGACCUAAAACCUAAAUGCCUUAUUUUCUUCUGCAAUGCCCCUUGACCCCAAUACAAACUCAAGAGUAGUUCCAAAUAGCCAGAAAAUGGCACUUUCAAUUUUUCCAUCCUGCAAGAUCUAAAUAAUUCUUGUUGUAAAAUAGGCAAAUGGUCUGAGGUGCAUGACAUCCAGGCAUUCUUUUACACAUUGGUCCCUUCCUAGUCUCUGUGCCCAAUGCAACUCAUCCCAAAUCCUCCUUCUUUCCCUCCCGCCUGUCCCCUCAGUCCCAACCCCAAGCAUCGCUGAGUCUUUCUAAUCUUCCUUUUCUACGGACCCAUCUGACCUCUCCCCUCCUCGCCAGGCCGAGCUAGGUCCCAAUUCUUCCUCAGCCUCCGCUCCUCCACCCUAUAAUCCUUUUAUCACCUCUCCUCCUCUCACCCAGUCCGGCUUACAGUUUCAUUCCGUGACUAGCCCUCCCCGACCUGCCCAGCAAUUUCCUCUUAAAAAGGUGGCUGAAACUAAAGGCAUAGUCAAGGUUAAUGCUCCUUUAUCUUUAUCAGAACUCUCCCAAAUCAGUGAGCAUUUAGGCUCUUUCAUCAAAUAUGAAAAACCCAGCCCAGUUCAUGGCUCAUUCAGCAGCAACCCUGAGACGCUUUACAGUCUUAGACCCUAAAAGAUUAAAAGGCCAUCUUAUUCUCAAUAUACAUUUUAUUACCCAUCCUGCUCCC [HERVH RNA segment S3]
binding result: binds
